Laboratory results: publication PMC7819943, “Rice protein-binding microarrays: a tool to detect cis-acting elements near promoter regions in rice”
Some of the results follow.

molecular target: T1, OsSMF1 (Oryza sativa, UniProt Q6ZLB0 1-436); experiment: protein-binding microarray (RPBM); PBS, 2% BSA, 51.3 ng/ul salmon testes DNA, 50 uM zinc acetate, 200 nM TF, 25 C, 1 h; high values mean tight binding; settings: protein: recombinant; tags: N-terminal polyhistidine and DsRed monomer fusion (pET32a); chain copies: 2; label: CyDye5-dUTP incorporated in the synthesized complementary strand; 3' TTTTT single-stranded linker to array surface; dsDNA, one strand shown
T1 sequence: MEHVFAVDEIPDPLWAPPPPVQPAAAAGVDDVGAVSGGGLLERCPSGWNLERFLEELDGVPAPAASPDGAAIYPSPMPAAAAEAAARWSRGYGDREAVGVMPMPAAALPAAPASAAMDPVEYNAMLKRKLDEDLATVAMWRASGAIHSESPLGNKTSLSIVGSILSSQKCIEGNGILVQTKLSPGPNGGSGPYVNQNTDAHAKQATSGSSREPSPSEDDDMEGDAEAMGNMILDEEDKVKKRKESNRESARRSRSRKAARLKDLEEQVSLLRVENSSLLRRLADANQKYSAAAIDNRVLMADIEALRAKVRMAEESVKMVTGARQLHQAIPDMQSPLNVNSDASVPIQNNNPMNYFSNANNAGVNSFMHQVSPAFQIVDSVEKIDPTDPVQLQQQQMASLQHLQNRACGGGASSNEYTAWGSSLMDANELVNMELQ
In short: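 A custom Agilent array was converted to double-stranded form by primer extension with Cy5-dUTP and blocked with 2% BSA. Protein at 200 nM in PBS with 2% BSA, salmon testes DNA and 50 µM zinc acetate was applied for 1 h at 25 °C, followed by washing. The proteins were polyhistidine–DsRed N-terminal fusions of transcription factors, expressed in E. coli BL21-CodonPlus and Ni–NTA-purified. The binding signal is per-feature fluorescence intensity (arbitrary units) from an Axon 4000B scanner.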

Sequence | binding signal
CAAGCTGCAACAGCAGCAGCGTGGCAACGCCACGTGTCTCCGGAGTCACCTAGTGCAG | 18600 fluorescence intensity (a.u.)
CGATGTGTTGTGTGCTGCTGCAAATTATCATATTGTTCATCGGAGTCACCTAGTGCAG | 3260 fluorescence intensity (a.u.)
CCGTTTCTACTCACCCAAGCCGCCACCGCACTTCGCACCCCGGAGTCACCTAGTGCAG | 3910 fluorescence intensity (a.u.)
TATTATCATGCTCCGCACAACACGTCAACGAACCACAAGTCGGAGTCACCTAGTGCAG | 6700 fluorescence intensity (a.u.)
ACTGCTGGATTCAGATGCCACGTGCATGTTCGCATGTGGCCGGAGTCACCTAGTGCAG | 13100 fluorescence intensity (a.u.)
CGTCAGAGGTGGATGTCACCACTGACGGCCGGCCACCCGTCGGAGTCACCTAGTGCAG | 3310 fluorescence intensity (a.u.)
CTACAGGAAAGGACCACCCGATGGTACATGCATTCCCGTGCGGAGTCACCTAGTGCAG | 3410 fluorescence intensity (a.u.)
CATCCCGGCATGGATTGGGCGCAGGTGACGCGGATCAACGCGGAGTCACCTAGTGCAG | 6240 fluorescence intensity (a.u.)
CGCGTACGGGTATCCAACCAGCGTCCTCTGCATCGATCTCCGGAGTCACCTAGTGCAG | 3210 fluorescence intensity (a.u.)
ACGTCCATCCGTTTCTTGCATGCCACCTAAATGATTATGACGGAGTCACCTAGTGCAG | 3670 fluorescence intensity (a.u.)
CGAGCACCTCCGGCCGAGCCCCGCCTCCCCGTCAACAAATCGGAGTCACCTAGTGCAG | 3510 fluorescence intensity (a.u.)
AAATAGAAGCTTGTAATGTTGCTGACGTCGATCCTCCTGTCGGAGTCACCTAGTGCAG | 13800 fluorescence intensity (a.u.)
GTTTTCTCTTATATATCTGCGCGTGAGTTGTGTGCTGAATCGGAGTCACCTAGTGCAG | 3410 fluorescence intensity (a.u.)
AAAACCATCGAAAACAGAGGGAGAATTTGCTGGTGTGGGTCGGAGTCACCTAGTGCAG | 12100 fluorescence intensity (a.u.)
TACTGTAAATAAGCGTTTAAACAGTAACTACACCTGCGTACGGAGTCACCTAGTGCAG | 27400 fluorescence intensity (a.u.)
TACAACAATAACGAATGGAATTATCAGAGAATTGCAACTCCGGAGTCACCTAGTGCAG | 3920 fluorescence intensity (a.u.)
CAAAACTGTGGTATGGGCCGGGGTGGGGCGGCGCGGGCCACGGAGTCACCTAGTGCAG | 6520 fluorescence intensity (a.u.)
ATTTAGGTGACGTGCACGAAAGAGATGATTTCACTTTCCCCGGAGTCACCTAGTGCAG | 5270 fluorescence intensity (a.u.)
ATTCGTTTCGTATTTATGCCCGATATTATCCGTGCTTCTACGGAGTCACCTAGTGCAG | 3320 fluorescence intensity (a.u.)
ACCGGCCATTAATCATCACGCGGCGGCTATGGTTAAGGTTCGGAGTCACCTAGTGCAG | 3510 fluorescence intensity (a.u.)
CCATCTCTCCCAAGCTTCTTCCTTCTAATCCTTGCTGACACGGAGTCACCTAGTGCAG | 3930 fluorescence intensity (a.u.)

As a short view, some entries already given:
Sequence | binding signal
AAAACCATCGAAAACAGAGGGAGAATTTGCTGGTGTGGGTCGGAGTCACCTAGTGCAG | 12100 fluorescence intensity (a.u.)
TACTGTAAATAAGCGTTTAAACAGTAACTACACCTGCGTACGGAGTCACCTAGTGCAG | 27400 fluorescence intensity (a.u.)
TACAACAATAACGAATGGAATTATCAGAGAATTGCAACTCCGGAGTCACCTAGTGCAG | 3920 fluorescence intensity (a.u.)
CAAAACTGTGGTATGGGCCGGGGTGGGGCGGCGCGGGCCACGGAGTCACCTAGTGCAG | 6520 fluorescence intensity (a.u.)
ATTTAGGTGACGTGCACGAAAGAGATGATTTCACTTTCCCCGGAGTCACCTAGTGCAG | 5270 fluorescence intensity (a.u.)
ATTCGTTTCGTATTTATGCCCGATATTATCCGTGCTTCTACGGAGTCACCTAGTGCAG | 3320 fluorescence intensity (a.u.)
ACCGGCCATTAATCATCACGCGGCGGCTATGGTTAAGGTTCGGAGTCACCTAGTGCAG | 3510 fluorescence intensity (a.u.)
CCATCTCTCCCAAGCTTCTTCCTTCTAATCCTTGCTGACACGGAGTCACCTAGTGCAG | 3930 fluorescence intensity (a.u.)

Going on with the list.

Sequence | binding signal
CGCCTCGTCGGCGTTGCCCTCAGGCCATTCAAATGCAAGCCGGAGTCACCTAGTGCAG | 4690 fluorescence intensity (a.u.)
CAACGGTAAACAAGCACACATCCACACAACGGCAATTAATCGGAGTCACCTAGTGCAG | 3340 fluorescence intensity (a.u.)
GAGATAAGCATTGGAGCGTGATGATGTGGTGGACCATCAACGGAGTCACCTAGTGCAG | 6160 fluorescence intensity (a.u.)
GACAACATAAACGCGCTGACGTGGCACTTCCCGTCGCAGTCGGAGTCACCTAGTGCAG | 36600 fluorescence intensity (a.u.)
AATACCGACGTGTCTAGACCTCAGCGACACACTGGAGCGTCGGAGTCACCTAGTGCAG | 5000 fluorescence intensity (a.u.)
TTTCCTTTGCTAGCTTACTTAGCTGGCAAAGCTTAATCTACGGAGTCACCTAGTGCAG | 3300 fluorescence intensity (a.u.)
TGTTGATTCCATCCTTGTGGATCGTCAGCATCTTATTCTACGGAGTCACCTAGTGCAG | 3630 fluorescence intensity (a.u.)
TCCTTGATTTCTCCCCTCTCTCTGTCATTTCTCTCTTCCTCGGAGTCACCTAGTGCAG | 3270 fluorescence intensity (a.u.)
GCTCCTTCCGATGCGGGGCCCACGTGCCCAGGAATCCGAGCGGAGTCACCTAGTGCAG | 3720 fluorescence intensity (a.u.)
CCATCCCACTTCGACGGAGCCCACGGCGTCAGCTCCCGTACGGAGTCACCTAGTGCAG | 3710 fluorescence intensity (a.u.)
GAAGCCGGCGGGGAGGTGGAAAGCCGCCGCCGCCGCCGCCCGGAGTCACCTAGTGCAG | 26400 fluorescence intensity (a.u.)
CACTGATTTGGTGGCTGACATGTGGACCTGAGAGTTGTGTCGGAGTCACCTAGTGCAG | 5010 fluorescence intensity (a.u.)
CGACCGAGCGAATTCAGTGAGCTGCATGCGTGGCGTGCGTCGGAGTCACCTAGTGCAG | 5290 fluorescence intensity (a.u.)
ATTTGGAGATGATGAAGCCGTAATAAACCGAGCGACTTACCGGAGTCACCTAGTGCAG | 25700 fluorescence intensity (a.u.)
TGCAACACTAAACACATGGGCCCACATGTCAGTCTGCCGCCGGAGTCACCTAGTGCAG | 3500 fluorescence intensity (a.u.)
AGCCCACTTGTGTCCTGCCACGTGTGTTATATCCTGAATACGGAGTCACCTAGTGCAG | 12700 fluorescence intensity (a.u.)
ATCCCACTACACGGCCACAAATTGACCGGTGAGGATTGTACGGAGTCACCTAGTGCAG | 34900 fluorescence intensity (a.u.)
GGCTCGCCGTGATCGGGAGCAGCCACGCCAGCTACGACATCGGAGTCACCTAGTGCAG | 4460 fluorescence intensity (a.u.)
AGGCTTCAAGCTGGCCACTCTAGTCACCATGGCGTCACTCCGGAGTCACCTAGTGCAG | 9760 fluorescence intensity (a.u.)
GCCTCGTGGTGACGTAACCGTTGACACGTAGGCGGCGGCTCGGAGTCACCTAGTGCAG | 33500 fluorescence intensity (a.u.)
TAGATGGGCCTGAAAGTTGTTGTGTGGCCTGAAAGTTGCGCGGAGTCACCTAGTGCAG | 3140 fluorescence intensity (a.u.)
